Source: patent US10266552B2, “Condensed heterocyclic compound having cycloalkylpyridyl group or salt thereof, agricultural and horticultural insecticide comprising the compound, and method for using the insecticide” (Nihon Nohyaku Co., Ltd., priority 2015, dated 2019)
Some entries share one result that the patent states for a list of compounds. At least one structure is not confirmed: it was looked up by name or label, or the drawing left a doubt.

Legend:
Assay type in all cases: in vivo
[1] = system: Laodelphax striatella; experiment: Test of insecticidal effect on Laodelphax striatella (rice seedling dip); settings: 500 ppm, rice seedlings dipped for 30 seconds, 3rd-instar larvae, 8 days after the inoculation
Excerpt: Test of Insecticidal Effect on Laodelphax striatella
The condensed heterocyclic compounds represented by the general formula (1) of the present invention or salts thereof were separately dispersed in water and diluted to 500 ppm, and rice plant seedlings (variety: Nihonbare) were dipped in the agrochemical dispersions for 30 seconds. After air-dried, each seedling was put into a separate glass test tube and inoculated with ten 3rd-instar larvae of Laodelphax striatella, and then the glass test tubes were capped with cotton plugs. At 8 days after the inoculation, the numbers of surviving larvae and dead larvae were counted, the corrected mortality rate was calculated according to the formula shown below, and the insecticidal effect was evaluated according to the criterion of Test Example 1. Corrected mortality rate (%)=100×(Survival rate in a non-treatment plot−Survival rate in a treatment plot)/Survival rate in a non-treatment plot

[2] = system: Plutella xylostella; experiment: Test of insecticidal effect on Plutella xylostella (dip of Chinese cabbage seedlings with laid eggs); settings: 500 ppm, seedlings with laid eggs dipped for about 30 seconds, 25° C., 6 days after the dip treatment
Excerpt: Test of Insecticidal Effect on Plutella xylostella
Adults of Plutella xylostella were released onto Chinese cabbage seedlings and allowed to lay eggs thereon. At 2 days after the release of the adults, the Chinese cabbage seedlings with laid eggs were dipped for about 30 seconds in agrochemical dispersions diluted to 500 ppm, each of which contained a different condensed heterocyclic compound represented by the general formula (1) of the present invention as an active ingredient. The seedlings were air-dried and then kept in a thermostatic chamber at 25° C. At 6 days after the dip treatment, the number of hatched larvae per plot was counted, the mortality rate was calculated according to the formula shown below, and the insecticidal effect was evaluated according to the criterion of Test Example 1. This test was conducted in triplicate using 10 adults of Plutella xylostella per plot. Corrected mortality rate (%)=100×(Number of hatched larvae in a non-treatment plot−Number of hatched larvae in a treatment plot)/Number of hatched larvae in a non-treatment plot

[3] = system: Myzus persicae; experiment: Test of control effect on Myzus persicae (foliar application, potted Chinese cabbage); settings: 500 ppm, foliar application to potted Chinese cabbage plants, 6 days after the foliar application
Excerpt: Test of Control Effect on Myzus persicae Chinese cabbage plants were planted in plastic pots (diameter: 8 cm, height: 8 cm), green peach aphids (Myzus persicae) were propagated on the plants, and the number of surviving green peach aphids in each pot was counted. The condensed heterocyclic compounds represented by the general formula (1) of the present invention or salts thereof were separately dispersed in water and diluted to 500 ppm, and the agrochemical dispersions were applied to the foliage of the potted Chinese cabbage plants. After the plants were air-dried, the pots were kept in a greenhouse. At 6 days after the foliar application, the number of surviving green peach aphids on the Chinese cabbage plant in each pot was counted, the control rate was calculated according to the formula shown below, and the control effect was evaluated according to the criterion shown below. Control rate=100−{(T×Ca)/(Ta×C)}×100 Ta: the number of survivors before the foliar application in a treatment plot T: the number of survivors after the foliar application in a treatment plot Ca: the number of survivors before the foliar application in a non-treatment plot C: the number of survivors after the foliar application in a non-treatment plot Criterion A: the control rate is 100%. B: the control rate is 90 to 99%. C: the control rate is 80 to 89%. D: the control rate is 50 to 79%.

CCS(=O)(=O)c1cc(C2(C=NOCC(F)(F)F)CC2)cnc1-c1nc2cc(C(F)(F)F)cnc2n1C [Compound 11-53]
A (the control rate is 100%): insecticidal effect (corrected mortality rate), activity level [1] | insecticidal effect (corrected mortality rate), activity level [2] | control effect (control rate), activity level [3]

CCS(=O)(=O)c1cc(C2(C(=O)O)CC2)cnc1-c1nc2cc(C(F)(F)F)ncc2n1C [Compound 12-1]
A (the control rate is 100%): insecticidal effect (corrected mortality rate), activity level [1] | insecticidal effect (corrected mortality rate), activity level [2] | control effect (control rate), activity level [3]

CCSc1cc(C2CC2NC(=O)OC(C)(C)C)cnc1-c1nc2cc(C(F)(F)F)cnc2n1C (stereo not drawn) [Compound 20-39]
A (the control rate is 100%): insecticidal effect (corrected mortality rate), activity level [1] | insecticidal effect (corrected mortality rate), activity level [2] | control effect (control rate), activity level [3]

CCS(=O)(=O)c1cc(C2(NC)CC2)cnc1-c1nc2cc(SC(F)(F)F)ccc2o1 [Compound 18-221]
A (the control rate is 100%): insecticidal effect (corrected mortality rate), activity level [1] | insecticidal effect (corrected mortality rate), activity level [2] | control effect (control rate), activity level [3]

CCSc1cc(C2CC2)cnc1-c1nc2cc(C(F)(F)C(F)(F)F)ccc2o1 [Compound 8-16]
A (the control rate is 100%): insecticidal effect (corrected mortality rate), activity level [1] | insecticidal effect (corrected mortality rate), activity level [2] | control effect (control rate), activity level [3]

CCS(=O)(=O)c1cc(C2(N)CC2)cnc1-c1nc2cc(C(F)(F)F)cnc2n1C [Compound 11-60]
A (the control rate is 100%): insecticidal effect (corrected mortality rate), activity level [1] | insecticidal effect (corrected mortality rate), activity level [2] | control effect (control rate), activity level [3]

CCSc1cc(C2(C=O)CC2)cnc1-c1nc2cc(SC(F)(F)F)ccc2o1 [Compound 20-45]
A (the control rate is 100%): insecticidal effect (corrected mortality rate), activity level [1] | insecticidal effect (corrected mortality rate), activity level [2] | control effect (control rate), activity level [3]

CCS(=O)(=O)c1cc(C2(CC#N)CC2)cnc1-c1nc2cc(SC(F)(F)F)ccc2o1 [Compound 18-187]
A (the control rate is 100%): insecticidal effect (corrected mortality rate), activity level [1] | insecticidal effect (corrected mortality rate), activity level [2] | control effect (control rate), activity level [3]

CCS(=O)(=O)c1cc(C2CC2C(N)=O)cnc1-c1nc2cc(C(F)(F)F)cnc2n1C (stereo not drawn) [Compound 11-86]
A (the control rate is 100%): insecticidal effect (corrected mortality rate), activity level [1] | insecticidal effect (corrected mortality rate), activity level [2] | control effect (control rate), activity level [3]

CCS(=O)(=O)c1cc(C2(N)CC2)cnc1-c1nc2cc(SC(F)(F)F)ccc2o1 [Compound 18-220]
A (the control rate is 100%): insecticidal effect (corrected mortality rate), activity level [1] | insecticidal effect (corrected mortality rate), activity level [2] | control effect (control rate), activity level [3]

CCS(=O)(=O)c1cc(C2(C(=O)OC(C)C)CC2)cnc1-c1nc2cc(C(F)(F)F)cnc2n1C [Compound 11-3]
A (the control rate is 100%): insecticidal effect (corrected mortality rate), activity level [1] | insecticidal effect (corrected mortality rate), activity level [2] | control effect (control rate), activity level [3]

CCS(=O)(=O)c1cc(C2(CO)CC2)cnc1-c1nc2cc(C(F)(F)F)cnc2n1C [Compound 11-16]
A (the control rate is 100%): insecticidal effect (corrected mortality rate), activity level [1] | insecticidal effect (corrected mortality rate), activity level [2] | control effect (control rate), activity level [3]

CCS(=O)(=O)c1cc(C2(C(N)=O)CC2)cnc1-c1nc2cc(C(F)(F)F)ccc2o1 [Compound 18-6]
A (the control rate is 100%): insecticidal effect (corrected mortality rate), activity level [1] | insecticidal effect (corrected mortality rate), activity level [2] | control effect (control rate), activity level [3]

CCSc1cc(C2CC2)cnc1-c1nc2cc(SC(F)(F)F)ccc2o1 [Compound 8-10]
A (the control rate is 100%): insecticidal effect (corrected mortality rate), activity level [1] | insecticidal effect (corrected mortality rate), activity level [2] | control effect (control rate), activity level [3]

CCS(=O)(=O)c1cc(C2(NC(C)=O)CC2)cnc1-c1nc2cc(C(F)(F)F)cnc2n1C [Compound 11-68]
A (the control rate is 100%): insecticidal effect (corrected mortality rate), activity level [1] | insecticidal effect (corrected mortality rate), activity level [2] | control effect (control rate), activity level [3]

CCS(=O)(=O)c1cc(C2CC2)cnc1-c1nc2cc(C(F)(F)F)ccc2o1 [Compound 8-15]
A (the control rate is 100%): insecticidal effect (corrected mortality rate), activity level [1] | insecticidal effect (corrected mortality rate), activity level [2] | control effect (control rate), activity level [3]

CCS(=O)(=O)c1cc(C2(NC(=O)OC)CC2)cnc1-c1nc2cc(SC(F)(F)F)ccc2o1 [Compound 18-233]
A (the control rate is 100%): insecticidal effect (corrected mortality rate), activity level [1] | insecticidal effect (corrected mortality rate), activity level [2] | control effect (control rate), activity level [3]

CCSc1cc(C2(C(=O)OC)CC2)cnc1-c1nc2cc(SC(F)(F)F)ccc2o1 [Compound 20-42]
A (the control rate is 100%): insecticidal effect (corrected mortality rate), activity level [1] | insecticidal effect (corrected mortality rate), activity level [2] | control effect (control rate), activity level [3]

CCSc1cc(C2(CO)CC2)cnc1-c1nc2cc(SC(F)(F)F)ccc2o1 [Compound 20-46]
A (the control rate is 100%): insecticidal effect (corrected mortality rate), activity level [1] | insecticidal effect (corrected mortality rate), activity level [2] | control effect (control rate), activity level [3]

CCS(=O)(=O)c1cc(C2(C(=O)OC)CC2)cnc1-c1nc2cc(C(F)(F)F)ccc2o1 [Compound 18-2]
A (the control rate is 100%): insecticidal effect (corrected mortality rate), activity level [1] | insecticidal effect (corrected mortality rate), activity level [2] | control effect (control rate), activity level [3]

CCS(=O)(=O)c1cc(C2(N(C)C(=O)OC)CC2)cnc1-c1nc2cc(SC(F)(F)F)ccc2o1 [Compound 18-234]
A (the control rate is 100%): insecticidal effect (corrected mortality rate), activity level [1] | insecticidal effect (corrected mortality rate), activity level [2] | control effect (control rate), activity level [3]

CCS(=O)(=O)c1cc(C2CC2)cnc1-c1nc2cc(C(F)(F)F)ncc2n1C [Compound 2-15]
A (the control rate is 100%): insecticidal effect (corrected mortality rate), activity level [1] | insecticidal effect (corrected mortality rate), activity level [2] | control effect (control rate), activity level [3]

CCSc1cc(C2(C=NO)CC2)cnc1-c1nc2cc(SC(F)(F)F)ccc2o1 [Compound 20-53]
A (the control rate is 100%): insecticidal effect (corrected mortality rate), activity level [1] | insecticidal effect (corrected mortality rate), activity level [2] | control effect (control rate), activity level [3]

CCSc1cc(C2CC2CO)cnc1-c1nc2cc(C(F)(F)F)cnc2n1C (stereo not drawn) [Compound 20-26]
A (the control rate is 100%): insecticidal effect (corrected mortality rate), activity level [1] | insecticidal effect (corrected mortality rate), activity level [2] | control effect (control rate), activity level [3]

CCS(=O)(=O)c1cc(C2(C=O)CC2)cnc1-c1nc2cc(SC(F)(F)F)ccc2o1 [Compound 18-174]
A (the control rate is 100%): insecticidal effect (corrected mortality rate), activity level [1] | insecticidal effect (corrected mortality rate), activity level [2] | control effect (control rate), activity level [3]
